# Measured values from the supplement of paper PMC10849652.
# Sequences of proteins named here, by UniProt entry; tags and fusion partners are left off. A change or cut given only in a name is not applied to a line headed by its entry.
# UniProt Q16384, whole entry, looked up: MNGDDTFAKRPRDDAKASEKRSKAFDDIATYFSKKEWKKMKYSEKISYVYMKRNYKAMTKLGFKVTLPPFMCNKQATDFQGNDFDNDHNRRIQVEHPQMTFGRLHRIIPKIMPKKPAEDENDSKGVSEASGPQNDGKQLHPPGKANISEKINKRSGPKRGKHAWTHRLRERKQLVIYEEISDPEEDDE
# UniProt Q9NUQ6: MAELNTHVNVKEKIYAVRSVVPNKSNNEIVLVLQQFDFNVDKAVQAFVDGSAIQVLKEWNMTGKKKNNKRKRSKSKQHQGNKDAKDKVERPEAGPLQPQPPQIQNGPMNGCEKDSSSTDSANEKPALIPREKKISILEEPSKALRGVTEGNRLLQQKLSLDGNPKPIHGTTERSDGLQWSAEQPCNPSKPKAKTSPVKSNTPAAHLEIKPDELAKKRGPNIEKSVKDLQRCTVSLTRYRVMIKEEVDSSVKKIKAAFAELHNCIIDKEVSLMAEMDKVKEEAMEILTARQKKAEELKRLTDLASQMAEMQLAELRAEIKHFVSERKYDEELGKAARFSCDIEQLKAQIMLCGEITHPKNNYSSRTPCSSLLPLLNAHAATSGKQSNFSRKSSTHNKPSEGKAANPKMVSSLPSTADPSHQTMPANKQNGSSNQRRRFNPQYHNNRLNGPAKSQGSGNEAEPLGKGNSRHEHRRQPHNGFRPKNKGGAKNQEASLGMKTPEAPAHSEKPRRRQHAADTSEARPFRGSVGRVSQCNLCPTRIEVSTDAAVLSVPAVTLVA
# UniProt P36956: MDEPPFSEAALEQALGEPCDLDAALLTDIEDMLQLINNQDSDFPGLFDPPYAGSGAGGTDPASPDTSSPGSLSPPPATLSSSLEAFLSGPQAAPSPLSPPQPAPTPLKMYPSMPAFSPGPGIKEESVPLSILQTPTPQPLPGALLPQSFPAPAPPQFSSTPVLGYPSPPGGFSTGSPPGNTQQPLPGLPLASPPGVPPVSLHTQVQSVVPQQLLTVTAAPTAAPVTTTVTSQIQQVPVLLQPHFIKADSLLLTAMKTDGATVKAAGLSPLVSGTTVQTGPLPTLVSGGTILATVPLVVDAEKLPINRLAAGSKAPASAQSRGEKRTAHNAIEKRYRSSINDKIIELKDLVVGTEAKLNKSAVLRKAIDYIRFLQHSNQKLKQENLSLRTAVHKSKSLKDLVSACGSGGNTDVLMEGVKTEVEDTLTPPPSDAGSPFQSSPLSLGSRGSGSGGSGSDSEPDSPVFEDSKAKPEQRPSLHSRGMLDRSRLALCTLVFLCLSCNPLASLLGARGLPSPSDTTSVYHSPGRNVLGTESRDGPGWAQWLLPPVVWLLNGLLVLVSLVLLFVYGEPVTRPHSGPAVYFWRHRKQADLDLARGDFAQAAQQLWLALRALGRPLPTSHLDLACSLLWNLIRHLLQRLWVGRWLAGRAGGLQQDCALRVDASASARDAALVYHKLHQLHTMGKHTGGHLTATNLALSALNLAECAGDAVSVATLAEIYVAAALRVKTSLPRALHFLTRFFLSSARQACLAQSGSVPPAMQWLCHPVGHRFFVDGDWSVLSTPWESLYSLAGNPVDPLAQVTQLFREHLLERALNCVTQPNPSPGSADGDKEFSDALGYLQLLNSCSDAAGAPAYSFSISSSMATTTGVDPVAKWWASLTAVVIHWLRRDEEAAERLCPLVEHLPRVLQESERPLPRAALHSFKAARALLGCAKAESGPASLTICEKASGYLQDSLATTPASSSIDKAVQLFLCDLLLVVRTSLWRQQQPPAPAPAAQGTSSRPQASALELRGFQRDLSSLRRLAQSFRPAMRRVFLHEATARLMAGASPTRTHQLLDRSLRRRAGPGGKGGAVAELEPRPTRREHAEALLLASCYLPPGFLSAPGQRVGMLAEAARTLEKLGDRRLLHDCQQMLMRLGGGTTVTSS
# UniProt O43278: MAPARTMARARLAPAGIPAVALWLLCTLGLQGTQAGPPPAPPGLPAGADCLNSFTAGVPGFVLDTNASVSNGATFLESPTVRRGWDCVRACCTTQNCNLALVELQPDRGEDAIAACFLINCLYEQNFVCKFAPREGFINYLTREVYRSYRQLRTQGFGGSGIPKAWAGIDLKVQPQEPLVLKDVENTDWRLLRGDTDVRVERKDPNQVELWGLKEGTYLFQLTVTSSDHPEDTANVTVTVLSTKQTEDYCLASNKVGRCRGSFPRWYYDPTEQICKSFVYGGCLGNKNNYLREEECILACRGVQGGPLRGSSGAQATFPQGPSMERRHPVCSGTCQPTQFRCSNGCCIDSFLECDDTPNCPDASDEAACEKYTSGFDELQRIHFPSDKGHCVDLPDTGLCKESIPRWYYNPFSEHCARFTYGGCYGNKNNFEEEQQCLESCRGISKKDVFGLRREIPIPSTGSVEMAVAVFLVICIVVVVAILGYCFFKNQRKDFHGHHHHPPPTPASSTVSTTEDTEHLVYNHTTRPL
# UniProt Q56A73: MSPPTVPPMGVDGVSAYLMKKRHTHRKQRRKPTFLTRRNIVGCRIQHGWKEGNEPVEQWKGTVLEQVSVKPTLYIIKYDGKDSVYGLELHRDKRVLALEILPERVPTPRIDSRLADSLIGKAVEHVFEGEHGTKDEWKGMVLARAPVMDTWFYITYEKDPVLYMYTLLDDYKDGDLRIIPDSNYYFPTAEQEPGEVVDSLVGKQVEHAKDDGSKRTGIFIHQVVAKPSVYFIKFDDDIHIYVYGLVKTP
# UniProt P35325: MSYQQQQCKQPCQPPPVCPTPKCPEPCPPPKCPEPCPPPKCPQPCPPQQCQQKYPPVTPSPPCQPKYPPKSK
# UniProt O60225: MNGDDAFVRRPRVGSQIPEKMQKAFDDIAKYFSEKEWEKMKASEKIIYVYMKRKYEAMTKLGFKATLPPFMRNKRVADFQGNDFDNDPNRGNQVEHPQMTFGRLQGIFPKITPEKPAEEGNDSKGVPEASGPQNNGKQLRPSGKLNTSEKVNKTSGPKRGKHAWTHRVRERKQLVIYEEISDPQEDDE
# UniProt Q8N9Q2: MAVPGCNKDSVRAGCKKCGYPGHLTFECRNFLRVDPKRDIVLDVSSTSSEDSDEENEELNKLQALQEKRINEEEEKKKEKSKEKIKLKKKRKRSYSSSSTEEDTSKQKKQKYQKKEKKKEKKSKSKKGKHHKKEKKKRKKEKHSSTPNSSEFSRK
# UniProt Q9UH36: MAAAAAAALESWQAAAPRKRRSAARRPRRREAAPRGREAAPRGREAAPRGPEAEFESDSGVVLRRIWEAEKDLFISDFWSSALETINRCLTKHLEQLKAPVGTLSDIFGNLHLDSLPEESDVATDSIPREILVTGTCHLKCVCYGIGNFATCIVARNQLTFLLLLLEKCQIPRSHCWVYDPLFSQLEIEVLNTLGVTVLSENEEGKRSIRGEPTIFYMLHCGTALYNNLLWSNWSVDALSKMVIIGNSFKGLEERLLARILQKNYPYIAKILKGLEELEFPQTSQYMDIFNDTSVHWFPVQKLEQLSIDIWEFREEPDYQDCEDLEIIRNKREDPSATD
# UniProt O75177, whole entry, looked up: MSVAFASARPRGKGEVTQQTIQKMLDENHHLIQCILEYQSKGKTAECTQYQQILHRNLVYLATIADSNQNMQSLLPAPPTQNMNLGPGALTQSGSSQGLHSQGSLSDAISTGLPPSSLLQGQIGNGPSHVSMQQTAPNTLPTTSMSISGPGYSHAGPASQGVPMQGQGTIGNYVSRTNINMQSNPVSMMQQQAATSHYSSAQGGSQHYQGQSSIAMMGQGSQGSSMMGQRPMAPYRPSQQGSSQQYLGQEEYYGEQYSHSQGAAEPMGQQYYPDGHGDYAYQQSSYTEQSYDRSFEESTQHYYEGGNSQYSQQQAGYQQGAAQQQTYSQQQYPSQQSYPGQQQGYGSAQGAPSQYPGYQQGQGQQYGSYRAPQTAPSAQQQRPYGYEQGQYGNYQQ
# UniProt Q9H040: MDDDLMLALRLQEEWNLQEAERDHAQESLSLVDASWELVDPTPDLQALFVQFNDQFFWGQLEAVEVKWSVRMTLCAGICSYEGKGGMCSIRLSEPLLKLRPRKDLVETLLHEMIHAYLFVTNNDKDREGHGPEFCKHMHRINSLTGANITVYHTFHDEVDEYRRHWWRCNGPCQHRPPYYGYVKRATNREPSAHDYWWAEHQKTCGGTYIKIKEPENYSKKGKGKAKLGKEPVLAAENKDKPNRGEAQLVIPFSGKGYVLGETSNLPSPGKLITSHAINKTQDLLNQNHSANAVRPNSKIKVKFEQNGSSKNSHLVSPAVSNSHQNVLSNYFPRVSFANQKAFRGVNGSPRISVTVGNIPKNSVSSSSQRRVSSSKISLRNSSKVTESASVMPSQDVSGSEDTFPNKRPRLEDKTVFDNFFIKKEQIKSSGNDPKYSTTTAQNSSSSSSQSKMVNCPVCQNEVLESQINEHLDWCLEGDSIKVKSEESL
# UniProt P81877: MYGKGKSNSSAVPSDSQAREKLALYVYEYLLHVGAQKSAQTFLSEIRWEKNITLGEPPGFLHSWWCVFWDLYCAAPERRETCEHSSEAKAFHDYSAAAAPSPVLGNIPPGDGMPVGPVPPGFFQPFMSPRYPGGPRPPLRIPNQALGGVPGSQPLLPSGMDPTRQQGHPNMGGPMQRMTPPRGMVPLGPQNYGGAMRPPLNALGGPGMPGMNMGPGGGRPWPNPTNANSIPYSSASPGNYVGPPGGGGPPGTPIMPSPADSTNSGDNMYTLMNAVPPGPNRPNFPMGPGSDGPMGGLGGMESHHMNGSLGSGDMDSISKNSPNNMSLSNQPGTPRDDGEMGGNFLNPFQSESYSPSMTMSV
# UniProt Q68D10: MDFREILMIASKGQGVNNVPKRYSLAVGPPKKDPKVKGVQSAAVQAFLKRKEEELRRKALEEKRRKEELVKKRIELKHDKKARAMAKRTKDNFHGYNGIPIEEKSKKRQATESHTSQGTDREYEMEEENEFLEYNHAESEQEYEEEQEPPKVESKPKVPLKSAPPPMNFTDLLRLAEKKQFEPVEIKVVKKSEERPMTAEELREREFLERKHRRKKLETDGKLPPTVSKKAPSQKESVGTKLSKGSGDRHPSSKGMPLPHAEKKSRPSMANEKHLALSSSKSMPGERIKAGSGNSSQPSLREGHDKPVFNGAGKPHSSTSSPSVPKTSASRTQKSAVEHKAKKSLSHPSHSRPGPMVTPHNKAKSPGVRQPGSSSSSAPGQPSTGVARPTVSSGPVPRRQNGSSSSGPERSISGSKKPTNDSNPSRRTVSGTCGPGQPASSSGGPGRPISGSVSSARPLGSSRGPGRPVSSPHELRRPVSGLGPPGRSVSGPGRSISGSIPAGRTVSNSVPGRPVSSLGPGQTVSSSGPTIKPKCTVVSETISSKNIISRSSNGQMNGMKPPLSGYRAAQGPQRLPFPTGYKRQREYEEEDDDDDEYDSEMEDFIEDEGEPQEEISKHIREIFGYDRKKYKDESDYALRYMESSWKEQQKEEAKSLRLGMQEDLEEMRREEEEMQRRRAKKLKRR
# UniProt Q15532, whole entry, looked up: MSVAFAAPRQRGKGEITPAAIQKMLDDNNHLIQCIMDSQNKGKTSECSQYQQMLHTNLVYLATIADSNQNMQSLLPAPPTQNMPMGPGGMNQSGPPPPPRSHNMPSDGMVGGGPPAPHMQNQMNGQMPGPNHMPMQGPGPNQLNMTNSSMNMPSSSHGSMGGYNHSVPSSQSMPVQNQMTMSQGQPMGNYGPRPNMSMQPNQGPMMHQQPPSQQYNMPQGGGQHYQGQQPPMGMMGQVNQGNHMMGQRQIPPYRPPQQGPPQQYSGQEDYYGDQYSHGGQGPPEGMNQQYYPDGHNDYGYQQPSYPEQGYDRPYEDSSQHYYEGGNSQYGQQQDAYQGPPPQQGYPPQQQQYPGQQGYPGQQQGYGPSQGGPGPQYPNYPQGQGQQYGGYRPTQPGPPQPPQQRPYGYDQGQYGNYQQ
# UniProt O76061, whole entry, looked up: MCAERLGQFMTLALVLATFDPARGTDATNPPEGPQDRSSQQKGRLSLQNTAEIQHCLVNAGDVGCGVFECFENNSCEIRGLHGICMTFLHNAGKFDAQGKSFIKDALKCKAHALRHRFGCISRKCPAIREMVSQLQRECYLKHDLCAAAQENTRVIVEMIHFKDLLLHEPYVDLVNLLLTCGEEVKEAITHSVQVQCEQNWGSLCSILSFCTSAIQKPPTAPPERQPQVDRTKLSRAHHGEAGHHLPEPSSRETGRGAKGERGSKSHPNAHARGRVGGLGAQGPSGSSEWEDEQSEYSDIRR
# UniProt Q5T280: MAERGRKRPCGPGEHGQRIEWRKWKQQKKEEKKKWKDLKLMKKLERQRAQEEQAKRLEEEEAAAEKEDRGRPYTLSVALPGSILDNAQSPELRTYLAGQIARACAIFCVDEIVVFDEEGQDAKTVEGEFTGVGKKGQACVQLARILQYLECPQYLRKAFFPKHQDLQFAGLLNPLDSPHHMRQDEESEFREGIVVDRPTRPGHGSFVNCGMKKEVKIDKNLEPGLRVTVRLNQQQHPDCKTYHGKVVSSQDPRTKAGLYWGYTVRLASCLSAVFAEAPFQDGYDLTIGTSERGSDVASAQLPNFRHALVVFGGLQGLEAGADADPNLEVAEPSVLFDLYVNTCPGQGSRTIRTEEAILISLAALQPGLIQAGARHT
# The list shows a part of the results.
# Experiments:
# Test in all cases: log2 fold change, soluble protein after heating vs DMSO (PISA); higher = thermal stabilisation; K562 lysate, 10 uM; active = over 0.2 and 3.5 SD of the protein, either way, in both replicates (recomputed)
# [1] = compound: CC1=C2C(=CC=C1)N=C(N(C2=O)C3=CC=CC=C3C)CN4C=NC5=C(N=CN=C54)N
# Procedure, shortened: (§1)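 K562 pellets were dounce-homogenised in PBS pH 7.4 with 1 mM MgCl2, and the crude extract at 1 mg/mL protein was treated with 10 μM compound for 30 min. Aliquots were heated for 3 min across 48°C-58°C, pooled, and brought to 0.5% NP-40 at 4°C; soluble protein was the supernatant after 21,000xg for 90 min. Soluble protein was quantified by TMTpro 16plex LC-MS/MS with channel sums equalised, and reported as log2 fold change in thermal stability against DMSO controls, with values from duplicates.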
# [2] = compound: Cc1sc2c(c1C)C(c1ccc(Cl)cc1)=N[C@@H](CC(=O)OC(C)(C)C)c1nnc(C)n1-2
# Procedure, shortened: as §1
# [3] = compound: c1ccc([C@@H]2C[C@H]2NC2CCNCC2)cc1
# Procedure, shortened: as §1
# [4] = compound: C1=CC=C(C=C1)[C@H](COC2=CC3=C(C=C2)NC(=O)N3)NC(=O)C4=CC=CN(C4=O)CC5=CC(=C(C=C5)F)F
# Procedure, shortened: as §1
# [5] = compound: CC1=C(SC2=C1C(=N[C@H](C3=NN=C(N32)C)CC(=O)N)C4=CC=C(C=C4)Cl)C
# Procedure, shortened: as §1
target,measurement,setting,value
SSX1 (UniProt Q16384),log2 fold change,[1],inactive: 0.358
same,log2 fold change,[2],inactive: -0.144
same,log2 fold change,[3],inactive: -0.219
STARD9 (UniProt Q9P2P6),log2 fold change,[1],inactive: 0.007
same,log2 fold change,[2],inactive: -0.166
same,log2 fold change,[3],inactive: 0.064
SQOR (UniProt Q9Y6N5),log2 fold change,[2],inactive: -0.059
SPATS2L isoform 2 (UniProt Q9NUQ6),log2 fold change,[4],inactive: 0.085
same,log2 fold change,[5],inactive: 0.059
same,log2 fold change,[1],inactive: 0
same,log2 fold change,[3],inactive: 0.193
SSX2IP (UniProt Q9Y2D8),log2 fold change,[1],inactive: -0.159
same,log2 fold change,[3],inactive: -0.024
SREBF1 isoform 4 (UniProt P36956),log2 fold change,[2],inactive: 0.001
SPINT1 (UniProt O43278),log2 fold change,[4],inactive: 0.027
same,log2 fold change,[5],inactive: 0.046
same,log2 fold change,[3],inactive: 0.065
SRP14 (UniProt H0YLW0),log2 fold change,[4],inactive: -0.031
same,log2 fold change,[5],inactive: 0.048
same,log2 fold change,[2],inactive: -0.32
same,log2 fold change,[3],inactive: -0.303
SSH2 (UniProt Q76I76),log2 fold change,[1],inactive: 0.117
same,log2 fold change,[2],inactive: -0.113
same,log2 fold change,[3],inactive: -0.263
STAU1 isoform 3 (UniProt O95793),log2 fold change,[4],inactive: 0.19
same,log2 fold change,[5],inactive: 0.043
same,log2 fold change,[3],inactive: 0.081
SPIN4 (UniProt Q56A73),log2 fold change,[1],inactive: 0.041
same,log2 fold change,[3],inactive: 0.102
SPRR2B (UniProt P35325),log2 fold change,[4],inactive: -0.073
same,log2 fold change,[5],inactive: 0.154
same,log2 fold change,[3],inactive: -0.005
SPP2 (UniProt Q13103),log2 fold change,[4],inactive: 0.191
same,log2 fold change,[5],inactive: 0.05
same,log2 fold change,[3],inactive: -0.042
SSX5 isoform 2 (UniProt O60225),log2 fold change,[4],inactive: 0.022
same,log2 fold change,[5],inactive: 0.03
same,log2 fold change,[1],inactive: -0.157
same,log2 fold change,[3],inactive: -0.253
SREK1IP1 (UniProt Q8N9Q2),log2 fold change,[3],inactive: 0.131
SPRYD3 (UniProt Q8NCJ5),log2 fold change,[4],inactive: 0.049
same,log2 fold change,[5],inactive: -0.073
same,log2 fold change,[3],inactive: -0.04
SRRD (UniProt Q9UH36),log2 fold change,[2],inactive: 0.097
same,log2 fold change,[3],inactive: -0.084
ST3GAL1 (UniProt Q11201),log2 fold change,[2],inactive: 0.143
STARD4 (UniProt Q96DR4),log2 fold change,[3],inactive: 0.056
SPC24 (UniProt K7ESQ2),log2 fold change,[3],inactive: 0.021
SPTBN1 isoform 3 (UniProt Q01082),log2 fold change,[2],inactive: -0.068
STAR (UniProt P49675),log2 fold change,[1],inactive: 0.048
same,log2 fold change,[2],inactive: -0.077
same,log2 fold change,[3],inactive: -0.028
STAG2 (UniProt Q8N3U4),log2 fold change,[3],inactive: 0.175
SS18L1 (UniProt O75177),log2 fold change,[4],inactive: 0.117
same,log2 fold change,[5],inactive: -0.087
same,log2 fold change,[3],inactive: -0.109
SPRTN (UniProt Q9H040),log2 fold change,[1],inactive: 0.562
same,log2 fold change,[2],inactive: 0.023
SRCIN1 (UniProt Q9C0H9),log2 fold change,[3],inactive: 0.058
STAM (UniProt A6NMU3),log2 fold change,[1],inactive: -0.21
same,log2 fold change,[2],inactive: 0.002
ST13P4 (UniProt Q8IZP2),log2 fold change,[1],inactive: 0.149
SPRED1 (UniProt Q7Z699),log2 fold change,[4],inactive: -0.077
same,log2 fold change,[5],inactive: -0.05
same,log2 fold change,[2],inactive: 0
same,log2 fold change,[3],inactive: 0.088
SSBP2 (UniProt P81877),log2 fold change,[1],inactive: 0.06
same,log2 fold change,[2],inactive: 0.095
same,log2 fold change,[3],inactive: 0.034
SPTY2D1 (UniProt Q68D10),log2 fold change,[4],inactive: 0.251
same,log2 fold change,[5],inactive: -0.304
same,log2 fold change,[2],inactive: -0.056
same,log2 fold change,[3],inactive: -0.104
STAG1 (UniProt Q8WVM7),log2 fold change,[4],inactive: -0.152
same,log2 fold change,[5],inactive: 0.008
same,log2 fold change,[2],inactive: -0.018
same,log2 fold change,[3],inactive: 0.051
SS18 (UniProt Q15532),log2 fold change,[1],inactive: -0.073
same,log2 fold change,[2],inactive: -0.045
same,log2 fold change,[3],inactive: 0.11
SSBP4 (UniProt U3KPY3),log2 fold change,[4],inactive: -0.028
same,log2 fold change,[5],inactive: 0.041
same,log2 fold change,[1],inactive: -0.027
same,log2 fold change,[3],inactive: 0.118
STC2 (UniProt O76061),log2 fold change,[1],inactive: 0.091
same,log2 fold change,[2],inactive: 0.057
same,log2 fold change,[3],inactive: 0.039
SRC isoform 2 (UniProt P12931),log2 fold change,[4],inactive: -0.052
same,log2 fold change,[5],active: -0.412
same,log2 fold change,[2],inactive: -0.105
same,log2 fold change,[3],inactive: 0.017
SPOUT1 (UniProt Q5T280),log2 fold change,[1],inactive: -0.012
same,log2 fold change,[2],inactive: -0.001
STAP1 (UniProt Q9ULZ2),log2 fold change,[2],inactive: -0.101

# Reprinted at random: 4 records from the list
target,measurement,setting,value
SSX1 (UniProt Q16384),log2 fold change,[3],inactive: -0.219
SPTBN1 isoform 3 (UniProt Q01082),log2 fold change,[2],inactive: -0.068
STARD9 (UniProt Q9P2P6),log2 fold change,[2],inactive: -0.166
SSX5 isoform 2 (UniProt O60225),log2 fold change,[1],inactive: -0.157

# A different layout for part of the listing above.
target | measurement | setting | value
STAM (UniProt A6NMU3) | log2 fold change | [2] | inactive: 0.002
ST13P4 (UniProt Q8IZP2) | log2 fold change | [1] | inactive: 0.149
